From the supplement of paper PMC10849652
This is one part of the list.

Chains of the proteins cited; added tags and fusions are not shown. Lines headed by an entry give the natural chain unless they say otherwise; changes in a name come on top.
UniProt Q8TCD5: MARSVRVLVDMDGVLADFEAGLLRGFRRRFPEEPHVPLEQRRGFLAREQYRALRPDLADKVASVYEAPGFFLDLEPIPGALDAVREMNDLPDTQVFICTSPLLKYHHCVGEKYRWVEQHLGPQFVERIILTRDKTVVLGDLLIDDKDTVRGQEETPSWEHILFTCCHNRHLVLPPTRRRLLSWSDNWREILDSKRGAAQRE
UniProt Q9Y6K5: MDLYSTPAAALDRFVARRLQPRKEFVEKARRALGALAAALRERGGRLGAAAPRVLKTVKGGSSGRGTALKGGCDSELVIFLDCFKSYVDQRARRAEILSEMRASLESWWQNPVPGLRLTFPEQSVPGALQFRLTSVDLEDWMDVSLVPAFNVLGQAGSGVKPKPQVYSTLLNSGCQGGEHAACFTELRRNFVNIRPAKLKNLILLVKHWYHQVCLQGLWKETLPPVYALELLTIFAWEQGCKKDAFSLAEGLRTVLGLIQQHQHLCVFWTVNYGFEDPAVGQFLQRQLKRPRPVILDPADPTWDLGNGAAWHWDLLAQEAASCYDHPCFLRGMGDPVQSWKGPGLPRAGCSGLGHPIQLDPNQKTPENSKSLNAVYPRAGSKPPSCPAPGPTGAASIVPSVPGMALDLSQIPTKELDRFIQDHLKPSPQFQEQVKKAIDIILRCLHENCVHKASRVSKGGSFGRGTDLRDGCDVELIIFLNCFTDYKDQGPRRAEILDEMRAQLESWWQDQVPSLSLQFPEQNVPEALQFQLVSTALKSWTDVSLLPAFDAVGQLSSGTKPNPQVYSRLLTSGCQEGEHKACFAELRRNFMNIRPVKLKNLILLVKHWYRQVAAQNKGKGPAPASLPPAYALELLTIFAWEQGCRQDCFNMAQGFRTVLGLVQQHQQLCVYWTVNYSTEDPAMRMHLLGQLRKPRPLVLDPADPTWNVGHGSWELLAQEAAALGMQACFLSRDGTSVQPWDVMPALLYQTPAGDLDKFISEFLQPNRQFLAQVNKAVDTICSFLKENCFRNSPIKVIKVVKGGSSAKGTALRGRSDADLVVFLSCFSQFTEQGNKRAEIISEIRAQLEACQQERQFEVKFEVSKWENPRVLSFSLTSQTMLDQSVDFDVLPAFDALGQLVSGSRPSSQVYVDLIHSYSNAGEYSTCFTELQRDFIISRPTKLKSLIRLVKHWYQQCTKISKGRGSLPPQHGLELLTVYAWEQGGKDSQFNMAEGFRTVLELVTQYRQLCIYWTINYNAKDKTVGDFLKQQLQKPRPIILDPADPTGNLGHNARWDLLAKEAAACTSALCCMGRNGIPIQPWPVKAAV
UniProt Q8WVJ2: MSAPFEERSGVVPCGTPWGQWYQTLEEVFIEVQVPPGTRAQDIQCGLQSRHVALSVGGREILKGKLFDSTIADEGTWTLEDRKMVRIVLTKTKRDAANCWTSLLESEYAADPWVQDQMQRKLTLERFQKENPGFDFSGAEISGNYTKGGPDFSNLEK
UniProt P57740: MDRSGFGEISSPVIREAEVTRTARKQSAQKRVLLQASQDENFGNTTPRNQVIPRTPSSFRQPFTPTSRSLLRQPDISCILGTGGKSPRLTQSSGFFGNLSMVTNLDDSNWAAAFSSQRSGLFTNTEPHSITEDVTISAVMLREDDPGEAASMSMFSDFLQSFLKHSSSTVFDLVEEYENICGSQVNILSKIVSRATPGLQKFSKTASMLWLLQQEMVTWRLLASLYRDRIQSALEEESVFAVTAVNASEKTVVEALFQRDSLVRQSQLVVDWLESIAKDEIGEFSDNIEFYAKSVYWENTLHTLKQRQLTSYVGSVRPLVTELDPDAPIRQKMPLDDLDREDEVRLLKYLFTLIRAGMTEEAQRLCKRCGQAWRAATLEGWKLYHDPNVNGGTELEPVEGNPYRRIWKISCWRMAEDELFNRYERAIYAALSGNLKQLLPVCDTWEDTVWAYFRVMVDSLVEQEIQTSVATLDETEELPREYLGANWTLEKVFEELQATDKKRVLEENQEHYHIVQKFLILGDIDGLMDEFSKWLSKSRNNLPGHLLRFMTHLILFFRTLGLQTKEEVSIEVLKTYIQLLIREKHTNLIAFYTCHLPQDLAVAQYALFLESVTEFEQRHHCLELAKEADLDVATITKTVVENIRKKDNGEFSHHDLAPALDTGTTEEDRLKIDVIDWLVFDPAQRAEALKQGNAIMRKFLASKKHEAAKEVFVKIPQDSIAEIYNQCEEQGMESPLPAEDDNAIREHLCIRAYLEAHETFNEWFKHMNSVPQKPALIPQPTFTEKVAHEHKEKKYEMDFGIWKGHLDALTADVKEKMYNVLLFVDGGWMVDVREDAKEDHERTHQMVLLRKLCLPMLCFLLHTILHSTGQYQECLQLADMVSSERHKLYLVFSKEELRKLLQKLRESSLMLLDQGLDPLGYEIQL
UniProt Q9BW27: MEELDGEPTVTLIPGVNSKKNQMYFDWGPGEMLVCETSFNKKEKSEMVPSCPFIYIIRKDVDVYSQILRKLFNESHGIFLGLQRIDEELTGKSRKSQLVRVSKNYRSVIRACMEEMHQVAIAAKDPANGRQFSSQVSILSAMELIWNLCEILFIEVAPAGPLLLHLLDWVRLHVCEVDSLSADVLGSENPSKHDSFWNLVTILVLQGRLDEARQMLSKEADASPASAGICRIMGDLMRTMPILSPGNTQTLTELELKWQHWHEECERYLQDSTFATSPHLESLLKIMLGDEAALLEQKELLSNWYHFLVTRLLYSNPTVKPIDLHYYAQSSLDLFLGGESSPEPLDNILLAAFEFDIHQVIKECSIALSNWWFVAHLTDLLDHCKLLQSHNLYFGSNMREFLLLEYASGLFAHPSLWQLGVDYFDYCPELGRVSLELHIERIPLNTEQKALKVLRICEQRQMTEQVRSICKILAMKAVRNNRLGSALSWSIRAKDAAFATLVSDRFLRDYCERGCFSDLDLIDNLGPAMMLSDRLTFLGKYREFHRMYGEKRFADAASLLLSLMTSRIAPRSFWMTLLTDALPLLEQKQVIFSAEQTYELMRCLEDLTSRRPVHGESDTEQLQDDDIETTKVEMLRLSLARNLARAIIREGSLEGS
UniProt Q9NRP0: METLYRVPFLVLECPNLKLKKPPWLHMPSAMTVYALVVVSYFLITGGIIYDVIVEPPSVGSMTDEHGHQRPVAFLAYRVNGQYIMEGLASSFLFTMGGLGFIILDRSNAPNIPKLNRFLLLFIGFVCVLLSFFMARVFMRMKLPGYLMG
UniProt P49757: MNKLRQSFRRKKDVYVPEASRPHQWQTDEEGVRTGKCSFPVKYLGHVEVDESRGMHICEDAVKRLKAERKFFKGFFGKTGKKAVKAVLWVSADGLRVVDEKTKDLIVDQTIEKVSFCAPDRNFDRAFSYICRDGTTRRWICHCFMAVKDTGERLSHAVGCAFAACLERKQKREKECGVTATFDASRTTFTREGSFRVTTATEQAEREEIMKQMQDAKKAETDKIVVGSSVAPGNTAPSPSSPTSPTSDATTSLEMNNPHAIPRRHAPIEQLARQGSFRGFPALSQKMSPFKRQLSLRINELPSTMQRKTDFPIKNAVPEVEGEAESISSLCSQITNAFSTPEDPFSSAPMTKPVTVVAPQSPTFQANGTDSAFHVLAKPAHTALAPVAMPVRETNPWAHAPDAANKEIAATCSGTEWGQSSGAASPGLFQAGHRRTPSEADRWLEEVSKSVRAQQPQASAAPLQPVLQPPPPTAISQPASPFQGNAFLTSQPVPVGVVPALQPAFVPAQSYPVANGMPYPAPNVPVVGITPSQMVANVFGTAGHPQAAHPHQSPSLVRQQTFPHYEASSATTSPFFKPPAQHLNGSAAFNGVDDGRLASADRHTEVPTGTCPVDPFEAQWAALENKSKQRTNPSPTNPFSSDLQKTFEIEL
UniProt Q6N063: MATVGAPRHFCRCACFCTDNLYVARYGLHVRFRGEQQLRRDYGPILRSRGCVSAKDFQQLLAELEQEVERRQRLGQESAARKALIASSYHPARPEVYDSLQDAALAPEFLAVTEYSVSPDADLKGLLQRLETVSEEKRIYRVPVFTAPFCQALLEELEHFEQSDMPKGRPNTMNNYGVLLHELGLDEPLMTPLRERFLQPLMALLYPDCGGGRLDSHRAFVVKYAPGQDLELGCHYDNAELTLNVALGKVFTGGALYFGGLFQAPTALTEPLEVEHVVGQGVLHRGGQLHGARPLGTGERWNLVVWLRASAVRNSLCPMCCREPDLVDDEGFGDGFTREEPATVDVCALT
UniProt Q9H1E3: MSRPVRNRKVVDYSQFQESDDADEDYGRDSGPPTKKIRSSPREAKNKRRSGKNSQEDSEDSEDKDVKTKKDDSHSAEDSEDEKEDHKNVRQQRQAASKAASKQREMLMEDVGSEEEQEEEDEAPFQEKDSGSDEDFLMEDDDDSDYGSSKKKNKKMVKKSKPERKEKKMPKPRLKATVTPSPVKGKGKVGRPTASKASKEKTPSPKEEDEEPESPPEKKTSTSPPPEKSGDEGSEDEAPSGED
UniProt P52948: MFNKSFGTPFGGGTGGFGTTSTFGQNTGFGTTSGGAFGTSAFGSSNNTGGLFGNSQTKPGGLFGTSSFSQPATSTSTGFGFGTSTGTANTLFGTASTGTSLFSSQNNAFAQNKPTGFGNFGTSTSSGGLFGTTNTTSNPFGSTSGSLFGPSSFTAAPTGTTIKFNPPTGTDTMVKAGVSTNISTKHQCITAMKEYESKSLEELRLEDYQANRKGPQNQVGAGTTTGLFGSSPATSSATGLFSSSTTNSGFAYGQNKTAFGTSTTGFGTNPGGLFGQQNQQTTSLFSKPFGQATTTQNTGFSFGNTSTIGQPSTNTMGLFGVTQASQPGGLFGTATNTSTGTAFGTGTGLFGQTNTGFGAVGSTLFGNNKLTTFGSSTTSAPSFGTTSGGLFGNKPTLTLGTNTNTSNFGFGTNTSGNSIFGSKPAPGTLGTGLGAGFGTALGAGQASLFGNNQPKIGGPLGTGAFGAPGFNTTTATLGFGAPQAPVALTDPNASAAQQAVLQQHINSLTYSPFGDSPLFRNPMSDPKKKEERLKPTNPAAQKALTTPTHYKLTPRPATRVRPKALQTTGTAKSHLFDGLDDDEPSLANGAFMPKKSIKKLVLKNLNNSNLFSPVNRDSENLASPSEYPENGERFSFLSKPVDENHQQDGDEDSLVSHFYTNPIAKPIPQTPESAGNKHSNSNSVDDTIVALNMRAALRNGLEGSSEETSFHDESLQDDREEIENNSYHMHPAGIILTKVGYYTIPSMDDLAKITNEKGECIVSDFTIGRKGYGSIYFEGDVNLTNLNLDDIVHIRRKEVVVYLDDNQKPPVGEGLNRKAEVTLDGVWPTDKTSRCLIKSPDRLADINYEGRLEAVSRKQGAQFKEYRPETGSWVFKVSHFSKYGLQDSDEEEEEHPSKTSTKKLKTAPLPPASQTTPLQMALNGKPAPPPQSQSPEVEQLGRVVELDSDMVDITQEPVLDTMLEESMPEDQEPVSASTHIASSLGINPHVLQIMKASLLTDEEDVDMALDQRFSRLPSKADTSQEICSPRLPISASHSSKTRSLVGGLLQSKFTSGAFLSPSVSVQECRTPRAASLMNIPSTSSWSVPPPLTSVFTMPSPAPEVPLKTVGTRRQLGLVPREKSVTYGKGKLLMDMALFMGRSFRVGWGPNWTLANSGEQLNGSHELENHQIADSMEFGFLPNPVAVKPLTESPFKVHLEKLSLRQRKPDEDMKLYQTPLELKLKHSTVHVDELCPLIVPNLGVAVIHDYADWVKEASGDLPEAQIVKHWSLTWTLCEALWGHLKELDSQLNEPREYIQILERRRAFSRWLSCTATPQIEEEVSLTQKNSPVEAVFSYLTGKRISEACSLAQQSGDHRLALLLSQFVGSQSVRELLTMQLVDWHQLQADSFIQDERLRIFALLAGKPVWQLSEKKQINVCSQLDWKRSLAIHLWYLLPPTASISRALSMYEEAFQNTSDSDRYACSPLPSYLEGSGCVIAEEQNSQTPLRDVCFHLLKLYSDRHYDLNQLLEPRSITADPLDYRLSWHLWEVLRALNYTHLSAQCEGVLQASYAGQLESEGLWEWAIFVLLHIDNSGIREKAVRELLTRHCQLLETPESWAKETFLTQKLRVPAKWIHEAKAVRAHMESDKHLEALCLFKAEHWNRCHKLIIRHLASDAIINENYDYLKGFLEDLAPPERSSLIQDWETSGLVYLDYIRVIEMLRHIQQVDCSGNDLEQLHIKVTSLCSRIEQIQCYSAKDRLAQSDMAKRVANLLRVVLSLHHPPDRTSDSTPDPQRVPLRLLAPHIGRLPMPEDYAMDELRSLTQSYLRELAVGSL
UniProt Q96DE0: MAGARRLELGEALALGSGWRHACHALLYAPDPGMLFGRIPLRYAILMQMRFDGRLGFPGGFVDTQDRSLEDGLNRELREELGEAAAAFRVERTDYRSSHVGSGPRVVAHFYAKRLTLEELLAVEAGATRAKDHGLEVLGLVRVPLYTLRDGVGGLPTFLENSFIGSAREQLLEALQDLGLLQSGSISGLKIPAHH

Assays:
Assay in all cases: log2 fold change, soluble protein after heating vs DMSO (PISA); higher = thermal stabilisation; K562 cells, 10 uM, 30 min; active = over 0.2 and 3.5 SD of the protein, either way, in both replicates (recomputed)
saracatinib = compound: CN1CCN(CCOc2cc(OC3CCOCC3)c3c(Nc4c(Cl)ccc5c4OCO5)ncnc3c2)CC1 [saracatinib]
How it was run: (§1)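 Aliquots of K562 cells (2×10^6 cells/mL) treated with 10 μM compound for 30 min were heated for 3 min over 48°C-58°C. After pooling and extraction in PBS with 0.5% NP-40 at 4°C, soluble protein from a 21,000xg, 90 min spin was quantified by TMTpro 16plex LC-MS/MS with channel sums equalised. Thermal stability is expressed against control samples, from duplicates, as a log2 fold change.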

sotrastaurin = compound: CN1CCN(c2nc(C3=C(c4c[nH]c5ccccc45)C(=O)NC3=O)c3ccccc3n2)CC1 [sotrastaurin]
How it was run: as §1

Tubastatin A = compound: CN1CCc2c(c3ccccc3n2Cc2ccc(C(=O)NO)cc2)C1 [Tubastatin A]
How it was run: as §1

[1] = compound: CNC(=O)C1=CC=CC=C1NC2=NC(=NC=C2Cl)NC3=C(C=C(C=C3)N4CCOCC4)OC
How it was run: as §1

defactinib = compound: CNC(=O)c1ccc(Nc2ncc(C(F)(F)F)c(NCc3nccnc3N(C)S(C)(=O)=O)n2)cc1 [defactinib]
How it was run: as §1

rucaparib = compound: CNCc1ccc(-c2[nH]c3cc(F)cc4c3c2CCNC4=O)cc1 [rucaparib]
How it was run: as §1

[2] = compound: CNc1nc(-c2ccc3c(N)n[nH]c3c2)cc(N2C[C@@H](C(=O)NC3CCCCC3)CC[C@H]2C)n1
How it was run: as §1

encorafenib = compound: COC(=O)N[C@@H](C)CNc1nccc(-c2cn(C(C)C)nc2-c2cc(Cl)cc(NS(C)(=O)=O)c2F)n1 [encorafenib]
How it was run: as §1

[3] = compound: COC(=O)[C@H](CCSC)NC(=O)C1=C(C=C(C=C1)NC[C@H](CS)N)C2=CC=CC=C2
How it was run: as §1

[4] = compound: COC1=CC=C(C=C1)CN2C=CC3=C2C=C(C=C3)C(=O)NO
How it was run: as §1

filanesib = compound: CON(C)C(=O)N1N=C(c2cc(F)ccc2F)S[C@@]1(CCCN)c1ccccc1 [filanesib]
How it was run: as §1

zotarolimus = compound: CO[C@H]1C[C@@H]2CC[C@@H](C)[C@@](O)(O2)C(=O)C(=O)N2CCCC[C@H]2C(=O)O[C@H]([C@H](C)C[C@@H]2CC[C@H](n3cnnn3)[C@H](OC)C2)CC(=O)[C@H](C)/C=C(\C)[C@@H](O)[C@@H](OC)C(=O)[C@H](C)C[C@H](C)/C=C/C=C/C=C/1C [zotarolimus]
How it was run: as §1

idasanutlin = compound: COc1cc(C(=O)O)ccc1NC(=O)[C@@H]1N[C@@H](CC(C)(C)C)[C@](C#N)(c2ccc(Cl)cc2F)[C@H]1c1cccc(Cl)c1F [idasanutlin]
How it was run: as §1

alisertib = compound: COc1cc(Nc2ncc3c(n2)-c2ccc(Cl)cc2C(c2c(F)cccc2OC)=NC3)ccc1C(=O)O [alisertib]
How it was run: as §1

[5] = compound: COc1cc2nc(-c3cc(F)ccc3O)nc(N[C@@H]3CNC[C@H]3C(C)(C)O)c2cc1OC
How it was run: as §1

gefitinib = compound: COc1cc2ncnc(Nc3ccc(F)c(Cl)c3)c2cc1OCCCN1CCOCC1 [gefitinib]
How it was run: as §1

[6] = compound: COc1cccc2cc(-c3nc([C@H]4CC[C@H](C(=O)O)CC4)n4ncnc(N)c34)[nH]c12
How it was run: as §1

lapatinib = compound: CS(=O)(=O)CCNCc1ccc(-c2ccc3ncnc(Nc4ccc(OCc5cccc(F)c5)c(Cl)c4)c3c2)o1 [lapatinib]
How it was run: as §1

pictilisib = compound: CS(=O)(=O)N1CCN(Cc2cc3nc(-c4cccc5[nH]ncc45)nc(N4CCOCC4)c3s2)CC1 [pictilisib]
How it was run: as §1

alvocidib = compound: CN1CC[C@H](c2c(O)cc(O)c3c(=O)cc(-c4ccccc4Cl)oc23)[C@H](O)C1 [alvocidib]
How it was run: as §1

| Target | log2 fold change (saracatinib) | log2 fold change (sotrastaurin) | log2 fold change (Tubastatin A) | log2 fold change [1] | log2 fold change (defactinib) | log2 fold change (rucaparib) | log2 fold change [2] | log2 fold change (encorafenib) | log2 fold change [3] | log2 fold change [4] | log2 fold change (filanesib) | log2 fold change (zotarolimus) | log2 fold change (idasanutlin) | log2 fold change (alisertib) | log2 fold change [5] | log2 fold change (gefitinib) | log2 fold change [6] | log2 fold change (lapatinib) | log2 fold change (pictilisib) | log2 fold change (alvocidib) |
| --- | --- | --- | --- | --- | --- | --- | --- | --- | --- | --- | --- | --- | --- | --- | --- | --- | --- | --- | --- | --- |
| PAAF1 (UniProt Q9BRP4) | inactive: 0.056 | inactive: 0.016 | inactive: -0.008 | inactive: -0.006 | inactive: -0.034 | inactive: 0.012 | inactive: -0.008 | inactive: -0.004 | inactive: 0.004 | inactive: -0.013 | inactive: -0.082 | inactive: -0.008 | inactive: -0.026 | inactive: -0.062 | inactive: 0.026 | inactive: -0.002 | inactive: 0.047 | inactive: 0.027 | inactive: 0.048 |  |
| NT5C (UniProt Q8TCD5) | inactive: 0.029 | inactive: 0.077 | inactive: -0.004 | inactive: -0.035 | inactive: 0.02 | inactive: -0.022 | inactive: -0.027 | inactive: -0.044 | inactive: 0.014 | inactive: -0.035 | inactive: -0.023 | inactive: -0.038 | inactive: -0.019 | inactive: -0.034 | inactive: 0.045 | inactive: -0.005 | inactive: 0.039 | inactive: -0.039 | inactive: 0.049 | inactive: 0.01 |
| OAS3 (UniProt Q9Y6K5) | inactive: -0.087 | inactive: 0.02 |  |  |  |  | inactive: -0.121 |  |  | inactive: -0.275 | inactive: -0.057 |  |  |  |  |  |  |  |  |  |
| NUDCD2 (UniProt Q8WVJ2) | inactive: -0.115 | inactive: -0.123 | inactive: 0.051 | inactive: 0.002 | inactive: -0.256 | inactive: -0.053 | inactive: 0 | inactive: 0.048 | inactive: 0 | inactive: 0.072 | inactive: -0.016 | inactive: 0.065 | inactive: 0.075 | inactive: -0.011 | inactive: 0.117 | inactive: 0.083 | inactive: -0.018 | inactive: -0.038 | inactive: 0.014 |  |
| NUP107 (UniProt P57740) | inactive: -0.017 | inactive: -0.103 | inactive: 0.067 | inactive: 0.023 | inactive: -0.081 | inactive: 0.041 | inactive: 0.02 | inactive: 0.111 | inactive: 0 | inactive: -0.005 | inactive: 0.233 | inactive: 0.032 | inactive: 0.026 | inactive: 0.007 | inactive: -0.116 | inactive: -0.073 | inactive: -0.04 | inactive: 0.137 | inactive: -0.13 |  |
| NUP85 (UniProt Q9BW27) | inactive: 0.027 | inactive: -0.026 | inactive: -0.001 | inactive: -0.021 | inactive: -0.097 | inactive: -0.047 | inactive: -0.034 | inactive: 0.025 | inactive: 0.003 | inactive: 0.01 | inactive: -0.009 | inactive: -0.022 | inactive: 0.016 | inactive: -0.061 | inactive: -0.038 | inactive: 0.025 | inactive: 0.043 | inactive: -0.042 | inactive: 0.049 |  |
| OSTC (UniProt Q9NRP0) | inactive: 0.111 | inactive: -0.05 | inactive: -0.174 | inactive: 0.03 | inactive: -0.053 | inactive: -0.036 | inactive: -0.004 | inactive: 0.047 | inactive: -0.046 | inactive: -0.05 | inactive: -0.171 | inactive: -0.105 | inactive: -0.041 | inactive: -0.101 | inactive: -0.184 | inactive: 0.018 | inactive: 0.026 | inactive: -0.041 | inactive: 0.162 |  |
| NUMB (UniProt P49757) | inactive: 0.033 | active: -0.266 | inactive: -0.014 | inactive: -0.027 | inactive: -0.044 | inactive: 0.01 | inactive: 0.065 | inactive: 0.081 | inactive: 0 | inactive: -0.051 | inactive: 0.074 | inactive: 0.015 | inactive: 0 | inactive: -0.064 | inactive: 0.04 | inactive: 0.027 | inactive: -0.017 | inactive: 0.012 | inactive: 0.076 |  |
| OGFOD2 (UniProt Q6N063) | inactive: 0.095 |  | inactive: -0.08 | inactive: 0.094 | inactive: -0.076 | inactive: -0.029 | inactive: 0.009 | inactive: 0.133 | inactive: 0.032 | inactive: -0.275 |  | inactive: 0.034 | inactive: 0.073 | inactive: 0.007 |  | inactive: 0.071 | inactive: -0.033 |  | inactive: -0.144 |  |
| OXR1 (UniProt Q8N573) | inactive: -0.039 | inactive: -0.049 | inactive: 0.008 | inactive: -0.038 | inactive: -0.059 | inactive: -0.014 | inactive: -0.063 | inactive: 0 | inactive: 0.003 | inactive: -0.018 | inactive: -0.078 | inactive: 0.009 | inactive: -0.014 | inactive: -0.059 | inactive: 0.034 | inactive: 0.003 | inactive: 0.018 | inactive: 0.011 | inactive: 0.164 |  |
| NUF2 (UniProt Q9BZD4) | inactive: -0.277 |  |  |  | inactive: 0.152 |  | inactive: 0.199 |  | inactive: -0.116 | inactive: -0.042 |  | inactive: -0.016 | inactive: 0.019 | inactive: 0.027 | inactive: 0.127 | inactive: -0.106 | inactive: -0.216 | inactive: -0.045 | inactive: -0.233 | inactive: 0.155 |
| NUCKS1 (UniProt Q9H1E3) | inactive: 0.006 | inactive: 0.075 | inactive: -0.006 | inactive: -0.167 | inactive: 0.048 | inactive: 0.027 | inactive: -0.071 | inactive: -0.068 | inactive: -0.006 | inactive: -0.035 | inactive: 0.051 | inactive: -0.031 | inactive: -0.011 | inactive: -0.071 | inactive: 0.182 | inactive: -0.001 | inactive: 0.02 | inactive: -0.064 | inactive: -0.011 |  |
| OPA1 isoform 2 (UniProt O60313) | inactive: -0.072 | inactive: -0.005 | inactive: 0.054 | inactive: -0.047 | inactive: -0.024 | inactive: -0.001 | inactive: 0.064 | inactive: 0.056 | inactive: -0.047 | inactive: -0.01 | inactive: -0.118 | inactive: 0.035 | inactive: -0.105 | inactive: 0.002 | active: -0.249 | inactive: -0.002 | inactive: 0.002 | inactive: 0.024 | inactive: -0.07 |  |
| NUP98 (UniProt P52948) | inactive: -0.019 | inactive: -0.072 | inactive: 0.041 | inactive: 0.018 | inactive: -0.12 | inactive: 0.063 | inactive: -0.037 | inactive: 0.039 | inactive: -0.053 | inactive: -0.003 | inactive: 0.045 | inactive: 0.009 | inactive: 0.061 | inactive: 0.007 | inactive: 0.047 | inactive: 0.026 | inactive: -0.057 | inactive: 0.02 | inactive: 0.027 |  |
| OSTM1 (UniProt Q86WC4) | inactive: -0.038 | inactive: 0.007 | inactive: 0.031 | inactive: 0.19 | inactive: -0.048 | inactive: -0.015 | inactive: -0.086 | inactive: 0.022 | inactive: 0.002 | inactive: -0.012 | inactive: -0.122 | inactive: 0.007 | inactive: 0.002 | inactive: -0.015 | inactive: -0.09 | inactive: -0.066 | inactive: 0.002 | inactive: 0.056 | inactive: 0.055 |  |
| OPA3 isoform 2 (UniProt Q9H6K4) | inactive: 0.074 |  |  | inactive: 0.039 | inactive: 0 |  | inactive: -0.226 |  | inactive: -0.142 |  |  | inactive: -0.066 | inactive: -0.153 | inactive: -0.174 |  |  | inactive: 0.04 |  |  | inactive: -0.044 |
| NUDT16 (UniProt Q96DE0) | inactive: 0.063 | inactive: -0.031 | inactive: 0.009 | inactive: -0.057 | inactive: -0.024 | inactive: 0.009 | inactive: -0.004 | inactive: -0.017 | inactive: -0.05 | inactive: -0.033 | inactive: -0.018 | inactive: 0.1 | inactive: -0.01 | inactive: -0.168 | inactive: 0.025 | inactive: 0.005 | inactive: 0.112 | inactive: 0.054 | inactive: 0.045 |  |
| NUMBL (UniProt Q9Y6R0) | inactive: -0.088 | active: -0.412 |  | inactive: 0.144 | inactive: -0.101 |  | inactive: -0.015 |  | inactive: 0.098 | inactive: -0.079 | inactive: 0.128 | inactive: -0.012 | inactive: -0.061 | inactive: -0.168 | inactive: 0.005 | inactive: 0.036 | inactive: -0.149 | inactive: 0.012 | inactive: -0.022 |  |

Pulled one by one from above, two records:

| Target | log2 fold change (saracatinib) | log2 fold change (sotrastaurin) | log2 fold change (Tubastatin A) | log2 fold change [1] | log2 fold change (defactinib) | log2 fold change (rucaparib) | log2 fold change [2] | log2 fold change (encorafenib) | log2 fold change [3] | log2 fold change [4] | log2 fold change (filanesib) | log2 fold change (zotarolimus) | log2 fold change (idasanutlin) | log2 fold change (alisertib) | log2 fold change [5] | log2 fold change (gefitinib) | log2 fold change [6] | log2 fold change (lapatinib) | log2 fold change (pictilisib) | log2 fold change (alvocidib) |
| --- | --- | --- | --- | --- | --- | --- | --- | --- | --- | --- | --- | --- | --- | --- | --- | --- | --- | --- | --- | --- |
| NT5C (UniProt Q8TCD5) | inactive: 0.029 | inactive: 0.077 | inactive: -0.004 | inactive: -0.035 | inactive: 0.02 | inactive: -0.022 | inactive: -0.027 | inactive: -0.044 | inactive: 0.014 | inactive: -0.035 | inactive: -0.023 | inactive: -0.038 | inactive: -0.019 | inactive: -0.034 | inactive: 0.045 | inactive: -0.005 | inactive: 0.039 | inactive: -0.039 | inactive: 0.049 | inactive: 0.01 |
| NUMBL (UniProt Q9Y6R0) | inactive: -0.088 | active: -0.412 |  | inactive: 0.144 | inactive: -0.101 |  | inactive: -0.015 |  | inactive: 0.098 | inactive: -0.079 | inactive: 0.128 | inactive: -0.012 | inactive: -0.061 | inactive: -0.168 | inactive: 0.005 | inactive: 0.036 | inactive: -0.149 | inactive: 0.012 | inactive: -0.022 |  |
